The text below walks through data of the supplement of paper PMC11061612.

This assay deals with DAN-G (Pancreatic Carcinoma). The experiment in a line: Bliss excess, mean over the matrix (fraction); higher = more synergy. The method in brief: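 Bliss excess equals the observed combination effect minus the expected value EA + EB − EA·EB, where EA and EB are the effects of each agent alone. Combination Emax is the second-highest inhibition within the matrix. Inhibition was scaled from CellTiter-Glo 2.0 luminescence, with 0 set by vehicle wells and 1 by blank wells, after 72 hours of two-drug dosing of cells plated in 1536-well plates.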

SMILES strings stand for the structures.

As for `COc1cc2ncnc(Nc3ccc(F)c(Cl)c3)c2cc1OCCCN1CCOCC1` [Gefitinib] + CC(C)n1c(=O)n(C)c2cnc3cc(F)c(-c4ccc(OCCCN5CCCCC5)nc4)cc3c21 [AZD1390] (first compound max 10 µM, 7x7, partner max 0.3 µM), the Bliss excess is -0.0655.
